Measurements reported in patent US20120264685A1 (priority 2009, published 2012).

Test: general procedure: Fmoc solid-phase peptide synthesis; Fmoc-PAL-PEG-PS; DIPCDI/HOBt or DIPCDI/HOAt; HBTU, PyBOP or TBTU for difficult couplings; TBTU/DI
Conditions: whole synthesis
[1] = analytical RP-HPLC, Shimadzu LC-10AD, Luna 5u C18, PDA detector at 220 nm

Substance: VH-Aib-QGTFT-(αMe-Ser)-D-(αMe-Bip(OMe))-(αMe-APPA)
- crude yield: 55%
- isolated yield: 49%
- crude HPLC purity [1]: 60%
- final HPLC purity [1]: 96%
